Measured values taken from patent US8470548.
Results are given in words; binding and its absence hold for the method and conditions named. In cells and extracts the contact can be indirect. Some binding calls cover weakened binding; strength is not graded here.

Protein sequences, listed by entry. Tags and fused reporters are not part of them.
UniProt P28334: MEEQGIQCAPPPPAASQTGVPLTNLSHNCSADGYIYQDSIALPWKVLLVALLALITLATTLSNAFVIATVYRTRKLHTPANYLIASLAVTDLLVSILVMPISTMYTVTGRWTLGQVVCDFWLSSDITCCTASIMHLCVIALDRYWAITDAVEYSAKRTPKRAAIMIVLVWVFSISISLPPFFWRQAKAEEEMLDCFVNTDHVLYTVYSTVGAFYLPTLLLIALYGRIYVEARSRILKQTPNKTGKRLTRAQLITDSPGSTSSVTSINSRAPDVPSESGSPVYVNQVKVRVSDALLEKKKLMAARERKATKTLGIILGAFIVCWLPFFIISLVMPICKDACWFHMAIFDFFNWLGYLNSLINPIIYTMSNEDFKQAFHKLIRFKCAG
UniProt P08207: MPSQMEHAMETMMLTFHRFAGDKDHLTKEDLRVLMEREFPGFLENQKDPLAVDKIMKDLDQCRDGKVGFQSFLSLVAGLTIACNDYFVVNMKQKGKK

Biological target: 5-HT1B receptor of mouse brain tissue (cerebral cortex) (mouse) (UniProt P28334)
Assay: co-immunoprecipitation from mouse cerebral cortex extracts with polyclonal 5-HT1B receptor antibody, immunoblot for p11

p11 of mouse brain tissue (cerebral cortex) (from UniProt P08207 1-97)
binding: binds
